The values below come from the supplement of paper PMC10849652.

Amino acid sequences for entries named in this document (tags omitted). A change or cut given only in a name is not applied to a line headed by its entry.
UniProt Q9UBQ7: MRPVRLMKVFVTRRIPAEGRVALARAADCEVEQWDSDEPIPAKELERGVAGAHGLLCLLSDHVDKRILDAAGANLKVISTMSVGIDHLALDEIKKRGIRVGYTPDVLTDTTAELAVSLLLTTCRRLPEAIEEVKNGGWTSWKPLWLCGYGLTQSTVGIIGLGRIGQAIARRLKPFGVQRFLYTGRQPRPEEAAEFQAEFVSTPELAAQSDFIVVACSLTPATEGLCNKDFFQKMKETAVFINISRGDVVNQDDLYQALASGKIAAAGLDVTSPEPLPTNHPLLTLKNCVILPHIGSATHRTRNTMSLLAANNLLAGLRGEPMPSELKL
UniProt Q92896: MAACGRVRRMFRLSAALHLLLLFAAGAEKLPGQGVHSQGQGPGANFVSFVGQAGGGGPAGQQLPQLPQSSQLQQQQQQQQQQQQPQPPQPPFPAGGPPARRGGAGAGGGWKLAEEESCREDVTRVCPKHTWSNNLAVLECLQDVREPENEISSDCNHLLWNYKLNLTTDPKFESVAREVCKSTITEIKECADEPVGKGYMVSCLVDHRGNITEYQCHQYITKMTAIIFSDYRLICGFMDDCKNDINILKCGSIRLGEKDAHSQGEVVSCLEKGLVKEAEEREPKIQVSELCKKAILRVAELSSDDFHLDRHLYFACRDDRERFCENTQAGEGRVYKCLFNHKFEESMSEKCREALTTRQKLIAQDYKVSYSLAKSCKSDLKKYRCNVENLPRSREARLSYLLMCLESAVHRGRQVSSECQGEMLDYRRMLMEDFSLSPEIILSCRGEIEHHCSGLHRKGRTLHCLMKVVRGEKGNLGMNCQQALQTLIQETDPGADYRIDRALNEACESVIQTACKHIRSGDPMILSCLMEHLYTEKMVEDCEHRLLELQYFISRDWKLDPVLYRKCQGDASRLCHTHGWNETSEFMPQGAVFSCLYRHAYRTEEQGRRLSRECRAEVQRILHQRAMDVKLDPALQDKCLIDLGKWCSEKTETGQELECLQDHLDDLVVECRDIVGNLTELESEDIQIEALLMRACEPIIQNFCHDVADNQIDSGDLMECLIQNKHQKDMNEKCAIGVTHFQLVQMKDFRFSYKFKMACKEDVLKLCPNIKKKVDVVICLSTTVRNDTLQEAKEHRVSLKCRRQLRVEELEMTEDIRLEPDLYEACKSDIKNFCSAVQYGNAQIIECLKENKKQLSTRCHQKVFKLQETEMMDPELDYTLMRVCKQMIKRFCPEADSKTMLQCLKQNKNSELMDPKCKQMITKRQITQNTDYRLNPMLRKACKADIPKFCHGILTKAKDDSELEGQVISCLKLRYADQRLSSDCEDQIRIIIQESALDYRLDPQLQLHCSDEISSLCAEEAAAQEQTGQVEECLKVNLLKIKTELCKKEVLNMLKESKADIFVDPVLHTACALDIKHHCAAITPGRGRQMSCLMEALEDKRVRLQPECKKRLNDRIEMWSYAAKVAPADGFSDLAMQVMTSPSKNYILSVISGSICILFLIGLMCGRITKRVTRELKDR
UniProt Q12849: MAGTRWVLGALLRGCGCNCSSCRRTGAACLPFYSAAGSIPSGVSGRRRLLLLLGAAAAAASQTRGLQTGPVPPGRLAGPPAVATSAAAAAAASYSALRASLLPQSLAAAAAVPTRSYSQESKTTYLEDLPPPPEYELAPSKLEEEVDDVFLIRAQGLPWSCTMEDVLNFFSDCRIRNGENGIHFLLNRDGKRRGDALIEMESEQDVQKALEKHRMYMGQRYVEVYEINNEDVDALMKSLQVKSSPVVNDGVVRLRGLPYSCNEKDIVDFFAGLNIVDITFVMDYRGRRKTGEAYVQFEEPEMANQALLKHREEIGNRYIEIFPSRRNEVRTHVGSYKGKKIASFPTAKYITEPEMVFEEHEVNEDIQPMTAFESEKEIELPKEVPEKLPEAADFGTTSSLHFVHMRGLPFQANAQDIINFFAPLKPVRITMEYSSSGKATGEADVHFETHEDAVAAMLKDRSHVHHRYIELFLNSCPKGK
UniProt Q9NQX3: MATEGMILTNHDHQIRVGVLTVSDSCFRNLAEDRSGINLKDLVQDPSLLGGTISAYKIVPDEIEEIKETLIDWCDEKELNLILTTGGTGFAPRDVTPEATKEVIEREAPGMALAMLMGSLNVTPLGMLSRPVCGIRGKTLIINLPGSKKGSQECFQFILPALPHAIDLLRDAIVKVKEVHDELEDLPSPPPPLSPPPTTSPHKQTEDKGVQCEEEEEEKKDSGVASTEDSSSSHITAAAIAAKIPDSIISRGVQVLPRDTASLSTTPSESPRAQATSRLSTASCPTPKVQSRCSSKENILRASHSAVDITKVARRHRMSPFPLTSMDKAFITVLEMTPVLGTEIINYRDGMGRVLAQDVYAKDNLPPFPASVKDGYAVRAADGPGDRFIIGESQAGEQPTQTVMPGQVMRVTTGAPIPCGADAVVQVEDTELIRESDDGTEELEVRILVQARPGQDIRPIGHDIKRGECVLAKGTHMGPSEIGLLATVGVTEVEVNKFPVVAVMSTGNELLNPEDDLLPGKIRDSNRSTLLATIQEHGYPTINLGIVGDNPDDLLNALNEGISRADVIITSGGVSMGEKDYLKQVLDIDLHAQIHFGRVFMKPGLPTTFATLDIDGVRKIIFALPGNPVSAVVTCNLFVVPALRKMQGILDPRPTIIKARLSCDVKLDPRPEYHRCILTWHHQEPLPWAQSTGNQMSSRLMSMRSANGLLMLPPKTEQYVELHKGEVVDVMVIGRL
UniProt Q9HC38: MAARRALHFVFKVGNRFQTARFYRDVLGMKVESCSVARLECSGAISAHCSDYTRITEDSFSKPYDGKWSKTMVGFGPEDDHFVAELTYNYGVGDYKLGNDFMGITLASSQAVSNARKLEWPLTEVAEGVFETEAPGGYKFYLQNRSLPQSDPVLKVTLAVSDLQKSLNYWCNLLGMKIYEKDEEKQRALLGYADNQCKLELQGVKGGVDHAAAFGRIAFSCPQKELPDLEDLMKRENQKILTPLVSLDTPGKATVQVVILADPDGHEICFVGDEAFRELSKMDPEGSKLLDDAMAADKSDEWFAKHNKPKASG
UniProt Q08379: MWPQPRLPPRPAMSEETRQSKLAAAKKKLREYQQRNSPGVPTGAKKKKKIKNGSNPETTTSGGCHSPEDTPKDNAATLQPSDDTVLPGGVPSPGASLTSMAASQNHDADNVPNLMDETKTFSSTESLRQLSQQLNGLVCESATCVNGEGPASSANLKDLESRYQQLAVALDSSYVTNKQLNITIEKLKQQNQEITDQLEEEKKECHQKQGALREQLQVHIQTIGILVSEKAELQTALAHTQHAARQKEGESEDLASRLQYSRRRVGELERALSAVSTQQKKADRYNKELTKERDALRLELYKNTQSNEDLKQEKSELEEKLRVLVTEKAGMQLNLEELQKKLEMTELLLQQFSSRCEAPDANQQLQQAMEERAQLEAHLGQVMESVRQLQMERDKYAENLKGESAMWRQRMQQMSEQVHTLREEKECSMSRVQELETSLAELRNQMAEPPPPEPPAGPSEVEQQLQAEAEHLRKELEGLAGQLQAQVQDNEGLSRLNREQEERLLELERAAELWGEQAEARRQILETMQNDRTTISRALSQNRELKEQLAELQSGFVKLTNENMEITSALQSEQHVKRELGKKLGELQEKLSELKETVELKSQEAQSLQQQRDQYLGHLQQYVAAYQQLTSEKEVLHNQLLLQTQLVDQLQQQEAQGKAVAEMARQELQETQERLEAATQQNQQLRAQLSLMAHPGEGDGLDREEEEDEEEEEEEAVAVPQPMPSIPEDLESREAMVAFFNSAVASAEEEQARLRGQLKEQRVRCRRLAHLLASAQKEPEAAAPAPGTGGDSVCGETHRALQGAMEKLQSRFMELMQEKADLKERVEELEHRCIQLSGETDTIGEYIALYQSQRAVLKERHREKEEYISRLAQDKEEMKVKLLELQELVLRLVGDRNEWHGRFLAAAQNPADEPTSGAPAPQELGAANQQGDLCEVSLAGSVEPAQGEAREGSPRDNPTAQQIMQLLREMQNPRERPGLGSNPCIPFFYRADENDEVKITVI
UniProt Q9BRX5: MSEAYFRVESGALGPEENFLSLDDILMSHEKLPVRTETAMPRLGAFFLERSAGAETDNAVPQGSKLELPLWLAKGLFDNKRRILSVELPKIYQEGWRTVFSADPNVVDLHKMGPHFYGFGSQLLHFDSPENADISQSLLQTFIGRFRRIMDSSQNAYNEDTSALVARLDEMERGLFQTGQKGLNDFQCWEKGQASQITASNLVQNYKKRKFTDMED
UniProt Q8TBA6: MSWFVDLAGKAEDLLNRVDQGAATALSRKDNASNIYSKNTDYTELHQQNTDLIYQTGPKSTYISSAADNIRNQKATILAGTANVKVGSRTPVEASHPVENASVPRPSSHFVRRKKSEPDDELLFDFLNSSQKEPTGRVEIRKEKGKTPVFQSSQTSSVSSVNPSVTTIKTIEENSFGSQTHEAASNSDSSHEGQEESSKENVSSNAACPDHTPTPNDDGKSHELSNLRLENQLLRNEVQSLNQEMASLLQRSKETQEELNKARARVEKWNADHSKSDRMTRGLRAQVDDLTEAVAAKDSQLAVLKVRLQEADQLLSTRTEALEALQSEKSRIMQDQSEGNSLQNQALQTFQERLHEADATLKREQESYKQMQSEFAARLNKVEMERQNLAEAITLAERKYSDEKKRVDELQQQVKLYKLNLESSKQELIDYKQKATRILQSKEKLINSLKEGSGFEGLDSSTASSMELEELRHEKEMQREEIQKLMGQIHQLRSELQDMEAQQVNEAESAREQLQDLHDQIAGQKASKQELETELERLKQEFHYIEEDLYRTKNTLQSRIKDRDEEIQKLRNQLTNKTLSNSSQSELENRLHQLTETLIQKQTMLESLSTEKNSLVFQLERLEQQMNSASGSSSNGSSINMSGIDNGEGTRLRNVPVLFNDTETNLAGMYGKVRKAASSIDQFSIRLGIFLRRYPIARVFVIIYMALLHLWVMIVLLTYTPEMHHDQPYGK
UniProt P17174: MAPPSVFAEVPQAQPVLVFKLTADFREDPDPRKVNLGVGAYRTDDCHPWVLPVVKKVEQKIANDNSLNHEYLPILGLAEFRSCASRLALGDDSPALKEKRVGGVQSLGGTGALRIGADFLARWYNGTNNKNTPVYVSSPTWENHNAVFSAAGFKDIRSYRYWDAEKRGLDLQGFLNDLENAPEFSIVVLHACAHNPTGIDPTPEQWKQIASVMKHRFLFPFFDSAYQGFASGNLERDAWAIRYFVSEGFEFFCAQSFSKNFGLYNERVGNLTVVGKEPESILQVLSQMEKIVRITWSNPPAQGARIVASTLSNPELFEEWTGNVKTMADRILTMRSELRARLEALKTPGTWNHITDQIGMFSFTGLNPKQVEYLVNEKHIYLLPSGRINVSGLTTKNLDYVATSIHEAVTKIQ
UniProt P17900: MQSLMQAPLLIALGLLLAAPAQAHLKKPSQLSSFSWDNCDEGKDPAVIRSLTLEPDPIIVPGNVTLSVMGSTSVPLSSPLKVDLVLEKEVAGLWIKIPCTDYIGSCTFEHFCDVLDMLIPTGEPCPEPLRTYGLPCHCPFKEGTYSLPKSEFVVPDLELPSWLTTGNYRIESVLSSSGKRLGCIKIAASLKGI
UniProt O60234, whole entry, looked up: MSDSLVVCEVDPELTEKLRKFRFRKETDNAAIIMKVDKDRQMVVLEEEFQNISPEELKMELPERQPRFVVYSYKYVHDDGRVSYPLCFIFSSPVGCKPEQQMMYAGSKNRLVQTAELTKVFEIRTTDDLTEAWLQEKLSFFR
UniProt P50148, whole entry, looked up: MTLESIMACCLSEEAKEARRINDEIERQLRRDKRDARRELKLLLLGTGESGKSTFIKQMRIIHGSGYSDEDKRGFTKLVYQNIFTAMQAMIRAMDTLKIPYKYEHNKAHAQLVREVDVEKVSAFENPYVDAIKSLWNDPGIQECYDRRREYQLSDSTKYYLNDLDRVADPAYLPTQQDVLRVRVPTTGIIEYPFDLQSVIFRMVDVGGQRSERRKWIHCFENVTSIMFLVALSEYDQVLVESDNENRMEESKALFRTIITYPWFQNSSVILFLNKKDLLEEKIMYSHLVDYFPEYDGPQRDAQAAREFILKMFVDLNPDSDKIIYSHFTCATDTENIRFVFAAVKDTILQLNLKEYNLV
UniProt Q8N954: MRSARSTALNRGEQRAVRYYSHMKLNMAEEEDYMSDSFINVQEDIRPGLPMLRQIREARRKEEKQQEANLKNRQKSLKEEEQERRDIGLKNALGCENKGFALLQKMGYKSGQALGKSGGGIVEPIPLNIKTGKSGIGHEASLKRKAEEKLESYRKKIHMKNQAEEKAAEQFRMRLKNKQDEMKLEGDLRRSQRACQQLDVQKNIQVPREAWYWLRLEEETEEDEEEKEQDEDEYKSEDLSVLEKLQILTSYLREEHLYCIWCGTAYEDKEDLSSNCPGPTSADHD
UniProt P62993, whole entry, looked up: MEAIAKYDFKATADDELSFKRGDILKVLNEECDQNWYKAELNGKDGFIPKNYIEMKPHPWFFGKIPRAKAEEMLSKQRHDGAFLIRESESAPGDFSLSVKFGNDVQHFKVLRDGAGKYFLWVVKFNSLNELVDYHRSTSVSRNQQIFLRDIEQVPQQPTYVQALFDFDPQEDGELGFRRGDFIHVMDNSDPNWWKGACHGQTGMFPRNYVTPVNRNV

This is one part of the list.

Compound in the first test: C[C@H](Nc1ncnc2nc[nH]c12)c1cc2cccc(Cl)c2c(=O)n1-c1ccccc1 [duvelisib]
Kind of test: log2 fold change, soluble protein after heating vs DMSO (PISA); higher = thermal stabilisation; K562 cells, 10 uM, 30 min; active = over 0.2 and 3.5 SD of the protein, either way, in both replicates (recomputed). Put shortly: (§1)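 K562 cells at 2×10^6 cells/mL were treated for 30 min with 10 μM compound, and aliquots were heated for 3 min over 48°C-58°C before pooling. Extraction used PBS with 0.5% NP-40 at 4°C, and soluble protein was the supernatant after 21,000xg for 90 min, measured by TMTpro 16plex LC-MS/MS with channel sums equalised. Thermal stability values, relative to control samples and from duplicates, are log2 fold changes.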
GRWD1 (UniProt Q9BQ67): the log2 fold change was inactive: -0.178.

Turning to GRHPR (UniProt Q9UBQ7), the log2 fold change was inactive: 0.037.

Consider GLG1 isoform 2 (UniProt Q92896), for which the log2 fold change is inactive: 0.049.

As for GRSF1 (UniProt Q12849), the log2 fold change was inactive: 0.

In the case of GPHN isoform 2 (UniProt Q9NQX3), the log2 fold change was inactive: 0.031.

GLOD4 isoform 2 (UniProt Q9HC38): the log2 fold change was inactive: 0.035.

In the case of GLB1L2 (UniProt Q8IW92), the log2 fold change is inactive: -0.014.

With GIPC1 (UniProt O14908), the log2 fold change was inactive: 0.031.

Regarding GOLGA2 (UniProt Q08379), the log2 fold change was inactive: -0.083.

As for GINS3 (UniProt Q9BRX5), the log2 fold change is inactive: 0.039.

For GOLGA5 (UniProt Q8TBA6), the log2 fold change is inactive: -0.018.

GOT1 (UniProt P17174): the log2 fold change was inactive: 0.022.

For the target GM2A (UniProt P17900), the log2 fold change is inactive: 0.008.

Consider GMFG (UniProt O60234), for which the log2 fold change was inactive: -0.012.

Take GNAQ (UniProt P50148): the log2 fold change was inactive: -0.019.

As for GPATCH11 (UniProt Q8N954), the log2 fold change was inactive: 0.089.

Compound in the next test: Cc1cc(Nc2cc(CN3CCOCC3)c3nc(C)c(Cc4ccc(Cl)cc4F)n3n2)n[nH]1 [gandotinib]
The test is described as above. Put shortly:
as §1
Regarding GMPPB isoform 2 (UniProt Q9Y5P6), the log2 fold change was inactive: 0.038.

As to GK (UniProt P32189), the log2 fold change was inactive: -0.003.

As to GRN (UniProt P28799), the log2 fold change is inactive: 0.004.

In the case of GRB2 (UniProt P62993), the log2 fold change is inactive: -0.001.

As for GINS4 (UniProt Q9BRT9), the log2 fold change is inactive: -0.086.

In the case of GRAP2 (UniProt O75791), the log2 fold change was inactive: -0.027.

Consider GPD1L (UniProt Q8N335), for which the log2 fold change is inactive: 0.036.

Regarding GNA13 (UniProt Q14344), the log2 fold change was inactive: -0.063.

On to GOSR1 (UniProt O95249), for which the log2 fold change is inactive: -0.041.

Take GPATCH8 (UniProt Q9UKJ3): the log2 fold change was inactive: 0.017.

On to GPALPP1 (UniProt Q8IXQ4), for which the log2 fold change was inactive: 0.037.

Turning to GPD2 (UniProt P43304), the log2 fold change is inactive: -0.004.

In the case of GPRIN1 (UniProt Q7Z2K8), the log2 fold change was inactive: -0.031.

In the case of GPN3 isoform 2 (UniProt Q9UHW5), the log2 fold change was inactive: -0.021.

Regarding GNPDA2 (UniProt Q8TDQ7), the log2 fold change is inactive: 0.034.

With GMPR2 isoform 2 (UniProt Q9P2T1), the log2 fold change was inactive: 0.027.

Turning to GNE isoform 2 (UniProt Q9Y223), the log2 fold change was inactive: -0.141.

Consider GPAA1 (UniProt O43292), for which the log2 fold change is inactive: -0.203.

Turning to GPR107 (UniProt Q5VW38), the log2 fold change was inactive: 0.016.

In the case of GORASP2 isoform 3 (UniProt Q9H8Y8), the log2 fold change is inactive: -0.113.

For GOLIM4 (UniProt O00461), the log2 fold change is inactive: 0.028.

Take GPN1 isoform 5 (UniProt Q9HCN4): the log2 fold change was inactive: -0.092.

Consider GOLT1B (UniProt Q9Y3E0), for which the log2 fold change was inactive: -0.106.

As to GRWD1 (UniProt Q9BQ67), the log2 fold change was inactive: 0.215.

On to GRHPR (UniProt Q9UBQ7), for which the log2 fold change is inactive: -0.007.

Turning to GLG1 isoform 2 (UniProt Q92896), the log2 fold change was inactive: -0.014.

Take GRSF1 (UniProt Q12849): the log2 fold change is inactive: 0.043.

Turning to GPHN isoform 2 (UniProt Q9NQX3), the log2 fold change was inactive: 0.085.

With GLOD4 isoform 2 (UniProt Q9HC38), the log2 fold change was inactive: -0.054.

With GLB1L2 (UniProt Q8IW92), the log2 fold change is inactive: -0.114.

Take GIPC1 (UniProt O14908): the log2 fold change was inactive: 0.015.

Consider GOLGA2 (UniProt Q08379), for which the log2 fold change is inactive: 0.057.

With GINS3 (UniProt Q9BRX5), the log2 fold change is inactive: -0.005.

Take GOLGA5 (UniProt Q8TBA6): the log2 fold change was inactive: 0.039.

As for GOT1 (UniProt P17174), the log2 fold change is inactive: -0.019.

Turning to GM2A (UniProt P17900), the log2 fold change is inactive: 0.039.

For the target GMFG (UniProt O60234), the log2 fold change is inactive: -0.036.

Consider GNAQ (UniProt P50148), for which the log2 fold change was inactive: 0.001.

Take GPATCH11 (UniProt Q8N954): the log2 fold change is inactive: 0.041.

Compound in another test: Cc1cc(Nc2cc(N3CCN(C)CC3)nc(Sc3ccc(NC(=O)C4CC4)cc3)n2)n[nH]1 [tozasertib]
The test is described as above. Put shortly: as §1
In the case of GMPPB isoform 2 (UniProt Q9Y5P6), the log2 fold change was inactive: -0.055.

Regarding GK (UniProt P32189), the log2 fold change was inactive: -0.009.

In the case of GRN (UniProt P28799), the log2 fold change was inactive: -0.022.

Consider GRB2 (UniProt P62993), for which the log2 fold change was inactive: -0.001.

Consider GINS4 (UniProt Q9BRT9), for which the log2 fold change was inactive: -0.019.

With GRAP2 (UniProt O75791), the log2 fold change was inactive: -0.035.

With GPD1L (UniProt Q8N335), the log2 fold change is inactive: -0.029.

GNA13 (UniProt Q14344): the log2 fold change is inactive: -0.029.

With GOSR1 (UniProt O95249), the log2 fold change is inactive: 0.01.

For GPATCH8 (UniProt Q9UKJ3), the log2 fold change was inactive: -0.02.

For GPALPP1 (UniProt Q8IXQ4), the log2 fold change is inactive: -0.02.

In the case of GPD2 (UniProt P43304), the log2 fold change was inactive: -0.042.

Regarding GPRIN1 (UniProt Q7Z2K8), the log2 fold change is inactive: -0.083.

For the target GPN3 isoform 2 (UniProt Q9UHW5), the log2 fold change was inactive: 0.

As to GNPDA2 (UniProt Q8TDQ7), the log2 fold change was inactive: 0.065.

With GMPR2 isoform 2 (UniProt Q9P2T1), the log2 fold change is inactive: -0.036.

Turning to GNE isoform 2 (UniProt Q9Y223), the log2 fold change is inactive: -0.092.

On to GPAA1 (UniProt O43292), for which the log2 fold change was inactive: 0.049.

Regarding GPR107 (UniProt Q5VW38), the log2 fold change was inactive: 0.028.

As for GORASP2 isoform 3 (UniProt Q9H8Y8), the log2 fold change was inactive: 0.005.

Take GOLIM4 (UniProt O00461): the log2 fold change was inactive: 0.017.

On to GPN1 isoform 5 (UniProt Q9HCN4), for which the log2 fold change is inactive: -0.016.

For the target GOLT1B (UniProt Q9Y3E0), the log2 fold change is inactive: 0.019.

Regarding GRWD1 (UniProt Q9BQ67), the log2 fold change was inactive: 0.085.

As to GRHPR (UniProt Q9UBQ7), the log2 fold change was inactive: 0.011.

With GLG1 isoform 2 (UniProt Q92896), the log2 fold change was inactive: -0.017.

For GRSF1 (UniProt Q12849), the log2 fold change is inactive: -0.004.

GPHN isoform 2 (UniProt Q9NQX3): the log2 fold change is inactive: -0.037.

Regarding GLOD4 isoform 2 (UniProt Q9HC38), the log2 fold change is inactive: -0.008.

Turning to GLB1L2 (UniProt Q8IW92), the log2 fold change is inactive: -0.045.

Regarding GIPC1 (UniProt O14908), the log2 fold change was inactive: 0.131.

On to GOLGA2 (UniProt Q08379), for which the log2 fold change is inactive: 0.059.

Consider GINS3 (UniProt Q9BRX5), for which the log2 fold change was inactive: 0.004.

With GOLGA5 (UniProt Q8TBA6), the log2 fold change is inactive: 0.001.

For the target GOT1 (UniProt P17174), the log2 fold change is inactive: -0.014.

For GM2A (UniProt P17900), the log2 fold change is inactive: 0.116.

In the case of GMFG (UniProt O60234), the log2 fold change is inactive: 0.059.

Regarding GNAQ (UniProt P50148), the log2 fold change is inactive: -0.028.

For GPATCH11 (UniProt Q8N954), the log2 fold change was inactive: 0.046.
